The other results are listed elsewhere or left out. These are further read-outs of the screen, such as a control signal, another cell line or another target. No call is given for them. Compounds called inactive in the main read-out are mostly missing here. The note in brackets gives the kind of curve behind each potency; many fits are weak.
Test: qHTS Assay for Modulators of Lamin A Splicing
Settings: HeLa LMNA splicing GFP/RFP minigene ratio, 48 h
In short: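 S3 HeLa stable clones carrying a lamin A-EGFP splicing minigene plus DsRed2 were seeded at 600 cells/well in Opti-MEM with 2% FBS, pin-dosed and incubated 48 h at 37°C. Acumen cytometry (488 nm) gave the GFP/RFP total-intensity ratio.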

[1] = measured here: RFP viability control channel
[2] = measured here: GFP splicing reporter channel

SMILES	AC50 [1]	AC50 [2]
CC(=O)N(C)c1ccc(NC(=S)Nc2ccc(C(C)C)cc2)cc1	5.62 µM [rising, partial curve, poor fit]	–
COc1ccc(N2CCN(C(=O)CC34CC5CC(CC(C5)C3)C4)CC2)c([N+](=O)[O-])c1	8.91 µM [rising, partial curve]	–
CC(C)N1C(=O)/C(=C\c2nc3ccccc3c(=O)n2-c2ccccc2)c2ccccc21	2.82 µM [falling, single point]	5.62 µM [rising, single point]
CCOC(=O)c1c(NC(=O)CSc2ncnc3ccccc23)sc(C(C)=O)c1C	3.16 µM [rising, single point]	–
Nc1ccc2c(c1Cl)C(=O)c1ccc(N)c(Cl)c1C2=O	–	3.55 µM [falling, partial curve, poor fit]
O=C(CSC1=NCCS1)N1CCCC1	35.5 µM [rising, single point]	–
CN(C)c1ccc(-c2nc(NCCN3CCOCC3)c3ccccc3n2)cc1	17.8 µM [falling, single point]	12.6 µM [falling, partial curve]
COc1ccccc1CNc1cc(-c2ccccc2OC)ncn1	7.08 µM [falling, partial curve]	5.01 µM [falling, full curve]
O=C(c1ccco1)N1N=C(c2ccc3nccnc3c2)CC1c1ccccc1 (stereo unspecified)	20 µM [rising, single point]	8.91 µM [rising, partial curve]
Cc1ccc(NC(=S)N2CCC(c3nc4ccccc4s3)CC2)cc1	11.2 µM [rising, partial curve]	–
O=C(c1cc([N+](=O)[O-])ccc1Cl)N1CCN(c2ccc([N+](=O)[O-])cc2)CC1	11.2 µM [rising, partial curve]	–
COC(=O)c1scc(-c2ccc(C)cc2)c1S(=O)(=O)Nc1ccc(F)cc1F	–	3.55 µM [falling, full curve, poor fit]
CCn1cnc2cc(NC(=O)c3cccs3)ccc21	–	0.00447 µM [rising, full curve, poor fit]
CC(C)=CCc1c2c(c3occ(-c4ccc(O)cc4)c(=O)c3c1O)C=CC(C)(C)O2	35.5 µM [falling, single point]	–
CCC(C)NS(=O)(=O)c1ccc(S(=O)(=O)N2CC=C(c3ccc(F)cc3)CC2)cc1 (stereo unspecified)	15.8 µM [rising, single point]	12.6 µM [rising, single point]
O=C(Nc1ccc(N2CCOCC2)cc1)Nc1ccc2nc(-c3ccco3)c(-c3ccco3)nc2c1	–	15.8 µM [falling, partial curve]
CCCCn1c(SCc2ccc(C(=O)OC)o2)nc2cc(S(N)(=O)=O)ccc21	3.16 µM [rising, full curve]	–
Cc1nn2c(=O)cc(COC(=O)c3cccc(NC(=O)COc4ccccc4Cl)c3)nc2s1	31.6 µM [rising, single point]	35.5 µM [rising, single point]
CCN(Cc1ccccc1)c1ccc(/C=N/N2CCOCC2)cc1	20 µM [rising, single point]	–

SMILES	AC50 [1]	AC50 [2]
C=CCN(CC=C)C(=S)NC(=O)c1ccc([N+](=O)[O-])cc1	31.6 µM [rising, single point]	–
CC1(C)Cc2c(c(N3CCOCC3)nc3snc(N)c23)CO1	15.8 µM [rising, single point]	14.1 µM [rising, partial curve, poor fit]
Cc1cc2cc(CCNC(=O)c3ccc(C)c([N+](=O)[O-])c3)c(=O)[nH]c2cc1C	17.8 µM [rising, single point]	–
COc1ccc(NC(=S)N(CCN(C)C)C(C)c2ccco2)cc1Cl (stereo unspecified)	25.1 µM [rising, partial curve]	35.5 µM [rising, single point]
CCc1nccn1C(=O)c1cnn2c(C(F)F)cc(-c3ccccc3)nc12	35.5 µM [rising, single point]	0.00631 µM [rising, full curve, poor fit]
CC(C)n1c(-c2ccc(N(C)C)cc2)nc2ccccc21	22.4 µM [rising, partial curve]	12.6 µM [rising, partial curve]
CSc1ccc(/C=C(\C#N)C(=O)NC2CCCCC2C)cc1 (stereo unspecified)	35.5 µM [rising, single point]	35.5 µM [rising, single point]
O=[N+]([O-])c1ccc(N/N=C/c2ccc[nH]2)cc1	17.8 µM [rising, partial curve]	11.2 µM [rising, partial curve]
CCCCC(CC(O)COCCC)c1n[nH]c(=S)n1-c1ccccc1 (stereo unspecified)	0.01 µM [falling, full curve, poor fit]	0.0178 µM [falling, full curve, poor fit]
COc1ccc(CNC(=O)CCC2N=C3c4ccccc4N=C(SCc4cccc(F)c4)N3C2=O)cc1 (stereo unspecified)	–	10 µM [rising, single point]
O=C(Cn1cnc(Cl)c1Cl)c1ccccc1	–	1.78 µM [rising, partial curve, poor fit]
O=C(CCSc1ccccc1)Nc1ccccc1C(=O)N1CCCC1	3.16 µM [rising, single point]	–
Cc1cc(C(=O)OCC(=O)NCc2ccco2)c(C)n1-c1ccccc1	10 µM [rising, partial curve]	17.8 µM [rising, single point]
Nc1ncnc(Sc2ncccn2)c1[N+](=O)[O-]	–	25.1 µM [falling, partial curve, poor fit]
CCCCSC1=C(C#N)C(c2ccccc2C)C(C(=O)OCC)C(=O)N1 (stereo unspecified)	15.8 µM [rising, partial curve]	–
CN(C)c1ccc(/C=N/NC(=O)c2cccc(C(=O)N/N=C/c3ccc(N(C)C)cc3)n2)cc1	–	0.00562 µM [falling, full curve]
C=CCc1cccc(CNc2nc3ccccc3n2CCC)c1O	–	14.1 µM [rising, single point]
Cc1ccc(-n2c(C)cc(C(=O)CSc3nncs3)c2C)cc1	6.31 µM [rising, full curve]	–
COc1ccc(CCC(=O)Nc2cc(Cl)ccc2N2CCN(C)CC2)cc1	–	35.5 µM [rising, single point]

SMILES	AC50 [1]	AC50 [2]
Cc1cc(NC(=O)COCc2cc(-c3ccc(F)cc3)on2)ccc1Br	35.5 µM [falling, partial curve, poor fit]	–
CCSc1cc(N2CCOCC2)nc(-c2ccccc2)n1	–	14.1 µM [rising, single point]
Cc1ccc(CSc2nnc(-c3cccc(S(=O)(=O)N4CCOCC4)c3)n2CC(C)C)cc1	25.1 µM [rising, single point]	14.1 µM [rising, single point]
Cc1ccc(C)c(N2CCN(C(=O)CCCN3C(=S)NC(C)(C)CC3C)CC2)c1 (stereo unspecified)	8.91 µM [rising, partial curve]	5.01 µM [rising, partial curve]
CCOc1ccc(C2=Nn3c(nnc3-c3ccc(OC)cc3)SC2)cc1	4.47 µM [rising, partial curve]	–
CCCn1c2ccccc2c2cnn(CC(=O)N3CCN(c4ccccc4F)CC3)c(=O)c21	–	0.112 µM [rising, single point]
CC(C)CCn1c(SCc2ccc(Cl)cc2)nc2c1c(=O)[nH]c(=O)n2C	2.51 µM [rising, single point]	3.16 µM [rising, full curve]
COC(=O)C1=C(C)NC(C)=C(C(=O)OCC(C)C)C1c1ccccc1[N+](=O)[O-] (stereo unspecified)	7.94 µM [rising, partial curve, poor fit]	–
CCOc1ccccc1NC(=O)CN(c1ccc(C)cc1)S(=O)(=O)c1c(C)noc1C	14.1 µM [rising, single point]	–
CCOC(=O)N1CCN(C(=O)CSCC(=O)Nc2nc(-c3ccc4c(c3)OCO4)cs2)CC1	15.8 µM [rising, single point]	12.6 µM [rising, single point]
O=C(C1CCCCN1S(=O)(=O)c1ccccc1)N1CCN(C(c2ccccc2)c2ccccc2)CC1 (stereo unspecified)	11.2 µM [rising, partial curve]	7.94 µM [rising, partial curve]
COc1ccc(OC)c(CNS(=O)(=O)c2ccc3[nH]c4c(c3c2)CCCCC4)c1	35.5 µM [rising, single point]	–
O=C(CSc1nc2ccc(Cl)cc2[nH]1)NC1CCCc2ccccc21 (stereo unspecified)	35.5 µM [rising, single point]	31.6 µM [rising, single point]
COc1cccc(CN2CCN(Cc3nc(-c4cccc(F)c4F)oc3C)CC2=O)c1	–	1.26 µM [falling, full curve]
O=C(CCSc1nc2ccccc2s1)N/N=C/c1c(O)ccc2ccccc12	10 µM [rising, partial curve]	–
Cc1onc(-c2ccccc2)c1C(=O)N/N=C/c1cccc(O)c1	10 µM [rising, single point]	–
Cc1ccc(NC(=O)CSc2nccn2Cc2ccco2)cc1Cl	8.91 µM [falling, partial curve]	–
COc1ccc(/C=N/OCC(=O)Nc2nc3ccccc3s2)cc1OC	35.5 µM [rising, single point]	–

Grouped by structure: the compounds so far containing a thiophene ring, fused or not (3)
SMILES	AC50 [1]	AC50 [2]
CCOC(=O)c1c(NC(=O)CSc2ncnc3ccccc23)sc(C(C)=O)c1C	3.16 µM [rising, single point]	–
COC(=O)c1scc(-c2ccc(C)cc2)c1S(=O)(=O)Nc1ccc(F)cc1F	–	3.55 µM [falling, full curve, poor fit]
CCn1cnc2cc(NC(=O)c3cccs3)ccc21	–	0.00447 µM [rising, full curve, poor fit]

From PubChem BioAssay AID1487 (National Center for Advancing Translational Sciences (NCATS), 2009)
